These are yes or no findings as the source states them, for the method shown. In cells and extracts the contact can be indirect. For some assays here: Binding can be weak; no strength is given. For some assays here: Sequences can lack the tags named with a protein.
How the values were obtained:
[1] = biological target: porcine LGP2, FLAG-tagged (pLGP2-FLAG) (porcine (Sus scrofa)); assay: condition: only without cell activation (no EMCV infection); co-IP; 293T cells co-transfected for 24 h, not infected (no cell activation); lysed in RIPA buffer; immunoprecipitated with anti-FLAG mAb and Protein A/G agarose; Western blot
[2] = biological target: porcine LGP2, FLAG-tagged (pLGP2-FLAG) (porcine (Sus scrofa)); assay: co-IP; 293T cells co-transfected for 24 h, then infected with 0.01 MOI EMCV for 8 h; lysed in RIPA buffer; immunoprecipitated with anti-FLAG mAb and Protein A/G agarose; Western blot
[3] = biological target: porcine MDA5, HA-tagged (pMDA5-HA) (porcine (Sus scrofa)); assay: condition: only without cell activation (no EMCV infection); co-IP; 293T cells co-transfected for 24 h, not activated; lysates immunoprecipitated with anti-HA mAb; Western blot
[4] = biological target: T1, porcine RIG-I, HA-tagged (pRIG-I-HA) (porcine (Sus scrofa)) (UniProt Q9GLV6); assay: as above
T1 sequence: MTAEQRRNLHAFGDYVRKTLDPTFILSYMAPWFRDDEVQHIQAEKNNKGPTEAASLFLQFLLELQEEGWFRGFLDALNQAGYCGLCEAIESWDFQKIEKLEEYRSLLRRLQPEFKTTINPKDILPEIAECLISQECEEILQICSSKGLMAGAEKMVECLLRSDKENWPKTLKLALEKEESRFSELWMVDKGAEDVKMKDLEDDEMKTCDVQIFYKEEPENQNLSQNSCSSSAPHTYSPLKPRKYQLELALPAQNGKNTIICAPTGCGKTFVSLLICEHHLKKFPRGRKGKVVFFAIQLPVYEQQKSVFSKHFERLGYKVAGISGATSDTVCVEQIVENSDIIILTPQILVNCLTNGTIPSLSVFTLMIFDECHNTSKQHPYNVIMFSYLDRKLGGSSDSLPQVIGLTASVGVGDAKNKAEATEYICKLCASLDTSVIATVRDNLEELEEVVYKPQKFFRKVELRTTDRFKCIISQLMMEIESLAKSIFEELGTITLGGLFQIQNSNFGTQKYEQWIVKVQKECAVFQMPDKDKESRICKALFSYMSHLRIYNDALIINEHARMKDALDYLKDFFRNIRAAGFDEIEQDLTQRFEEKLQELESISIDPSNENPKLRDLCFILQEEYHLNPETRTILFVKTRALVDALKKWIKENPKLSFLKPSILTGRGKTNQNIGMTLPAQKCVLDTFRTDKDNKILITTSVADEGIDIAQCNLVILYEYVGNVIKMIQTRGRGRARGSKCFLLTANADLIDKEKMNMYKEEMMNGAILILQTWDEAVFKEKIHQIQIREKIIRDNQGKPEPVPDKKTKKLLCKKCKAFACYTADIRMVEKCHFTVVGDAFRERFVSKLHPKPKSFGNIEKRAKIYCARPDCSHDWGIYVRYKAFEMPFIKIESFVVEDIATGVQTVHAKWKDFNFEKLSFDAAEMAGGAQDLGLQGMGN

[5] = biological target: T1, porcine RIG-I, HA-tagged (pRIG-I-HA) (porcine (Sus scrofa)); assay: co-IP; 293T cells co-transfected for 24 h, not activated; lysates immunoprecipitated with anti-HA mAb; Western blot
[6] = biological target: porcine MDA5, FLAG-tagged (pMDA5-FLAG) (porcine (Sus scrofa)); assay: co-IP; 293T cells co-transfected for 24 h, not infected (no cell activation); lysed in RIPA buffer; immunoprecipitated with anti-FLAG mAb and Protein A/G agarose; Western blot

In the case of “porcine MDA5, HA-tagged (pMDA5-HA) (from UniProt A0A2S1PVX7)”, the binding [1] is reported as “no binding” and the binding [2] is reported as “binds”.

In the case of “porcine LGP2, FLAG-tagged (pLGP2-FLAG) (from UniProt A0A2S1PVW1)”, the binding [3] is reported as “no binding” and the binding [4] is reported as “no binding”.

With porcine MDA5, FLAG-tagged (pMDA5-FLAG) the binding [5] was “no binding”.

B1: porcine RIG-I, HA-tagged (pRIG-I-HA) (protein, UniProt Q9GLV6 1-940)
chain: MTAEQRRNLHAFGDYVRKTLDPTFILSYMAPWFRDDEVQHIQAEKNNKGPTEAASLFLQFLLELQEEGWFRGFLDALNQAGYCGLCEAIESWDFQKIEKLEEYRSLLRRLQPEFKTTINPKDILPEIAECLISQECEEILQICSSKGLMAGAEKMVECLLRSDKENWPKTLKLALEKEESRFSELWMVDKGAEDVKMKDLEDDEMKTCDVQIFYKEEPENQNLSQNSCSSSAPHTYSPLKPRKYQLELALPAQNGKNTIICAPTGCGKTFVSLLICEHHLKKFPRGRKGKVVFFAIQLPVYEQQKSVFSKHFERLGYKVAGISGATSDTVCVEQIVENSDIIILTPQILVNCLTNGTIPSLSVFTLMIFDECHNTSKQHPYNVIMFSYLDRKLGGSSDSLPQVIGLTASVGVGDAKNKAEATEYICKLCASLDTSVIATVRDNLEELEEVVYKPQKFFRKVELRTTDRFKCIISQLMMEIESLAKSIFEELGTITLGGLFQIQNSNFGTQKYEQWIVKVQKECAVFQMPDKDKESRICKALFSYMSHLRIYNDALIINEHARMKDALDYLKDFFRNIRAAGFDEIEQDLTQRFEEKLQELESISIDPSNENPKLRDLCFILQEEYHLNPETRTILFVKTRALVDALKKWIKENPKLSFLKPSILTGRGKTNQNIGMTLPAQKCVLDTFRTDKDNKILITTSVADEGIDIAQCNLVILYEYVGNVIKMIQTRGRGRARGSKCFLLTANADLIDKEKMNMYKEEMMNGAILILQTWDEAVFKEKIHQIQIREKIIRDNQGKPEPVPDKKTKKLLCKKCKAFACYTADIRMVEKCHFTVVGDAFRERFVSKLHPKPKSFGNIEKRAKIYCARPDCSHDWGIYVRYKAFEMPFIKIESFVVEDIATGVQTVHAKWKDFNFEKLSFDAAEMAGGAQDLGLQGMGN
For B1, the binding [1] was “no binding”, the binding [6] was “no binding” and the binding [2] was “binds”.
